Results: article PMC12557800

Biological target: mouse SLC9C1 ΔExchanger-PA (lacking the exchanger domain) (mouse)
Test: co-IP; HEK293T cell lysates coexpressing mouse TMEM217-3xFLAG and mouse SLC9C1-PA (full length or truncated); IP with anti-FLAG or anti-PA antibodies, immunoblot with FLAG and PA antibodies

- binding: binds
B1: mouse TMEM217-3xFLAG expressed in HEK293T cells (protein, UniProt Q14AF1 1-189)
chain: MKHHSWCGLTARMGTVLSGVFSIMATHMHLIFERKHLGNGNCTENFQAQGLNILRYFFICWSFQIVLFTSIITMIASCFLLYSVYAQIYEGLMSYVIWIIIYESTSLTVQTLTDEFSVALVRAMRWFGWVSRASLHCFWLYFVVTHAQIIYQSKKQGNILTYHRRISLGSGDRPRRKSKIIHFVQHHSE

Results are given in words; binding and its absence hold for the method and conditions named. Binding seen in cells or lysates may run through a third protein. Binding calls can cover weak binding; strength is not graded here. Where a sequence is shown, tags or fusion partners need not be part of it.
